PubChem BioAssay AID1224830 – NIAID | 2016
In all, the deposit lists about 18,000 reagents; shown is a random part of them. Of all reagents, about 2,900 (16%) were called active. 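Calls are made per well; low scores hint the gene aids the LPS response, high scores that it dampens it.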 Repeated entries: four replicate wells of each siRNA pool.

Assay: 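Regulators of TLR4 signalling towards TNF-alpha in macrophage-like cells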 (primary screen)
Cells: human THP-1 monocytic leukaemia cells, TNF dual-luciferase reporter clone, PMA-differentiated to macrophage-like cells
Reagents: siRNA pool against human genes, 50 nM
Time to read-out: LPS for 4 h, given about 3 days after siRNA transfection
Conditions: bacterial LPS (TLR4 ligand), 10 ng/ml
Detection: 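Ratio of firefly to renilla light, scaled to the plate median and expressed as a robust z-score per replicate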
Scale: TNF reporter robust z-score: higher = stronger TNF reporter response to LPS
Call rule: 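a well is active when its z-score exceeds 2.8 or falls below -1.5; control wells carry no call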

For TPM1 (tropomyosin 1), what does the deposit list?
TNF reporter robust z-score: 1.42; call: inactive

What did the screen give for TPM1 (tropomyosin 1)?
TNF reporter robust z-score: 1.22; call: inactive

With TPM1 (tropomyosin 1), how do the results read?
TNF reporter robust z-score: 0.54; call: inactive

For TPM1 (tropomyosin 1), what does the deposit list?
TNF reporter robust z-score: 1.02; call: inactive

Which result is listed for PHF21B (PHD finger protein 21B)?
TNF reporter robust z-score: 1.48; call: inactive

What did the screen give for PHF21B (PHD finger protein 21B)?
TNF reporter robust z-score: 0.14; call: inactive

What did the screen give for PHF21B (PHD finger protein 21B)?
TNF reporter robust z-score: -0.26; call: inactive

What did the screen give for PHF21B (PHD finger protein 21B)?
TNF reporter robust z-score: -1.34; call: inactive

With ZNF569 (zinc finger protein 569), how do the results read?
TNF reporter robust z-score: 2.19; call: inactive

How did the screen score ZNF569 (zinc finger protein 569)?
TNF reporter robust z-score: 0.02; call: inactive

What did the screen give for ZNF569 (zinc finger protein 569)?
TNF reporter robust z-score: 1.19; call: inactive

How did the screen score ZNF569 (zinc finger protein 569)?
TNF reporter robust z-score: 0.66; call: inactive

Which result is listed for TBC1D9B (TBC1 domain family member 9B)?
TNF reporter robust z-score: 0.1; call: inactive

What did the screen give for TBC1D9B (TBC1 domain family member 9B)?
TNF reporter robust z-score: 0.38; call: inactive

With TBC1D9B (TBC1 domain family member 9B), what does the deposit list?
TNF reporter robust z-score: -0.84; call: inactive

With TBC1D9B (TBC1 domain family member 9B), what was measured?
TNF reporter robust z-score: 0.21; call: inactive

For MED4 (mediator complex subunit 4), what was measured?
TNF reporter robust z-score: -0.49; call: inactive

With MED4 (mediator complex subunit 4), what was measured?
TNF reporter robust z-score: -0.41; call: inactive

How did the screen score MED4 (mediator complex subunit 4)?
TNF reporter robust z-score: -0.66; call: inactive

With MED4 (mediator complex subunit 4), how do the results read?
TNF reporter robust z-score: -0.5; call: inactive

For OR5B12 (olfactory receptor family 5 subfamily B member 12), how do the results read?
TNF reporter robust z-score: 1.38; call: inactive

For OR5B12 (olfactory receptor family 5 subfamily B member 12), how do the results read?
TNF reporter robust z-score: -0.33; call: inactive

What is on record for OR5B12 (olfactory receptor family 5 subfamily B member 12)?
TNF reporter robust z-score: 1.24; call: inactive

With OR5B12 (olfactory receptor family 5 subfamily B member 12), how do the results read?
TNF reporter robust z-score: 1.98; call: inactive

With CPTP (ceramide-1-phosphate transfer protein), how do the results read?
TNF reporter robust z-score: -0.21; call: inactive

For CPTP (ceramide-1-phosphate transfer protein), what was measured?
TNF reporter robust z-score: -0.3; call: inactive

What did the screen give for CPTP (ceramide-1-phosphate transfer protein)?
TNF reporter robust z-score: -0.4; call: inactive

Which result is listed for CPTP (ceramide-1-phosphate transfer protein)?
TNF reporter robust z-score: -0.06; call: inactive

Further records:
Which result is listed for RAVER2 (ribonucleoprotein, PTB binding 2)?
TNF reporter robust z-score: 0.83; call: inactive

What did the screen give for RAVER2 (ribonucleoprotein, PTB binding 2)?
TNF reporter robust z-score: 1.91; call: inactive

For RAVER2 (ribonucleoprotein, PTB binding 2), how do the results read?
TNF reporter robust z-score: 0; call: inactive

Which result is listed for RAVER2 (ribonucleoprotein, PTB binding 2)?
TNF reporter robust z-score: 1.31; call: inactive

For ZPR1 (ZPR1 zinc finger), what does the deposit list?
TNF reporter robust z-score: -0.76; call: inactive

With ZPR1 (ZPR1 zinc finger), what was measured?
TNF reporter robust z-score: -0.84; call: inactive

What did the screen give for ZPR1 (ZPR1 zinc finger)?
TNF reporter robust z-score: 0.01; call: inactive

For ZPR1 (ZPR1 zinc finger), what does the deposit list?
TNF reporter robust z-score: 0.03; call: inactive

What is on record for EEA1 (early endosome antigen 1)?
TNF reporter robust z-score: 1.78; call: inactive

With EEA1 (early endosome antigen 1), what was measured?
TNF reporter robust z-score: -0.41; call: inactive

What is on record for EEA1 (early endosome antigen 1)?
TNF reporter robust z-score: 2.09; call: inactive

Which result is listed for EEA1 (early endosome antigen 1)?
TNF reporter robust z-score: 1.1; call: inactive

For ZNF536 (zinc finger protein 536), how do the results read?
TNF reporter robust z-score: -0.65; call: inactive

Which result is listed for ZNF536 (zinc finger protein 536)?
TNF reporter robust z-score: -0.72; call: inactive

For ZNF536 (zinc finger protein 536), how do the results read?
TNF reporter robust z-score: -1.18; call: inactive

What did the screen give for ZNF536 (zinc finger protein 536)?
TNF reporter robust z-score: -1.19; call: inactive

How did the screen score SLC25A47?
TNF reporter robust z-score: -0.92; call: inactive

With SLC25A47, how do the results read?
TNF reporter robust z-score: 6.63; call: active

Which result is listed for SLC25A47?
TNF reporter robust z-score: 0.34; call: inactive

What is on record for SLC25A47?
TNF reporter robust z-score: 0.78; call: inactive
